Inconclusive results, whose numbers are uncertain, are shown with a selection of clear calls. A potency beside an inconclusive call is a rough fit, not a confirmed value. The source made the active and inactive calls. Calls follow the shape of the dose curve; as a rule, active = well fitted curve in the direction sought with a large enough effect; inconclusive = small, poorly fitted or top-dose-only effect, or effect the other way, or another doubt; inactive = no such curve, though single readings can be large or run the other way.
What follows are molecules tested against Pyruvate kinase PKLR (Homo sapiens) (UniProt P30613) (assay: Confirmation Concentration-Response Assay for Activators of Human Liver Pyruvate Kinase). Conditions: purified hPK-L, Kinase-Glo ATP luminescence, 1 h; series mostly up to 57.5 µM.
Description: Confirmatory assay NIH Chemical Genomics Center [NCGC] Matthew G. Vander Heiden, M.D., Ph.D. [Harvard Medical School, 77 Avenue Louis Pasteur, Boston, MA 02115] NCGC Assay Overview: Human pyruvate kinase liver (hPK-L) enzyme was supplied as a highly purified (>95% pure) preparation from Harvard Medical School and assayed for its ability to generate ATP from ADP using phosphoenolpyruvate (PEP) as a substrate. ATP generation was detected in a coupled reaction by luciferase-mediated luminescence, an ATP-dependent process. Pyruvate kinase substrates, PEP and ADP, were present in the assay at Km and approximately 10-fold below Km respectively. The enzyme was assayed at an intermediate level of activity to screen for both inhibitors and activators.
NCGC Assay Protocol Summary for L-isoform: Three uL of substrate mix (at r.t.) in assay buffer (50 mM Imidazole pH7.2, 50 mM KCl, 7 mM MgCl2, 0.01% Tween 20, 0.05% BSA) was dispensed into white solid bottom 1,536 well microtiter plates so that the final concentrations of substrates in the assay were 0.1 mM ADP and 0.5 mM PEP. 23 nL of compound were delivered by a pin tool and 1 uL of enzyme mix (final concentration of 0.1 nM) in assay buffer (4 degree Celsius) was added. Plates were incubated at room temperature for 1 hour. Two uL of detection mix (Kinase-Glo, Promega; at 4 degree Celsius protected from light) was added and luminescence read by a ViewLux (Perkin Elmer) at 1 second exposure/plate. Data were normalized to the uninhibited (row 31). Additionally, a no enzyme and 5-fold enzyme control was dispensed in row 32, split equally between the two conditions.

Protein sequences, listed by entry. Tags and fused reporters are not part of them. Lines headed by an entry give the natural chain unless they say otherwise; changes in a name come on top.
UniProt P30613: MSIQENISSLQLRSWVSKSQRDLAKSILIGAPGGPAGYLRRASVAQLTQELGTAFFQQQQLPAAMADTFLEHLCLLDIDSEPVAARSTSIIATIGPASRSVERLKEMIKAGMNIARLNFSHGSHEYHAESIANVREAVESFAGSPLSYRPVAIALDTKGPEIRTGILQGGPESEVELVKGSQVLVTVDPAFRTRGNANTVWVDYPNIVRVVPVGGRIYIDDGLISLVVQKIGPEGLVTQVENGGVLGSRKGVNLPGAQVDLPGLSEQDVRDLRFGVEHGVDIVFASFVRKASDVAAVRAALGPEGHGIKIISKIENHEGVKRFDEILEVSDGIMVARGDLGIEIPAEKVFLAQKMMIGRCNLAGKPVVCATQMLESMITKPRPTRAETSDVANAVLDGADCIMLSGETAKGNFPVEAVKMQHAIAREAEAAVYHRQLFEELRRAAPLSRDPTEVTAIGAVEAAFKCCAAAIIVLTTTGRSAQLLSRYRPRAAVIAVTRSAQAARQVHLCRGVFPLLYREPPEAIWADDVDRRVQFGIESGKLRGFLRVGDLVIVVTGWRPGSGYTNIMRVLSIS

SMILES	Potency
O=S(=O)(c1ccccc1)N1CCN(S(=O)(=O)c2ccc3c(c2)OCCO3)CC1	inconclusive: 3.55 µM [rising, full curve]
O=S(=O)(c1ccc2c(c1)OCCO2)N1CCN(S(=O)(=O)c2c(F)cccc2F)CC1	inconclusive: 12.6 µM [rising, partial curve]
COc1ccc(S(=O)(=O)N2CCN(S(=O)(=O)c3ccc(OC)cc3)CC2)cc1	inactive
O=S(=O)(NCCCCNS(=O)(=O)c1c(F)cccc1F)c1ccc2c(c1)OCCO2	inconclusive: 28.2 µM [rising, partial curve, poor fit]

Source: PubChem BioAssay AID1781 (National Center for Advancing Translational Sciences (NCATS), 2009)
